We go through one sequence from patent publication US20210071191.

The data set deals with T1, Flag-OsGRF4 (ngr2) (Oryza sativa) (UniProt Q6ZIK5).
T1 sequence (limits assumed): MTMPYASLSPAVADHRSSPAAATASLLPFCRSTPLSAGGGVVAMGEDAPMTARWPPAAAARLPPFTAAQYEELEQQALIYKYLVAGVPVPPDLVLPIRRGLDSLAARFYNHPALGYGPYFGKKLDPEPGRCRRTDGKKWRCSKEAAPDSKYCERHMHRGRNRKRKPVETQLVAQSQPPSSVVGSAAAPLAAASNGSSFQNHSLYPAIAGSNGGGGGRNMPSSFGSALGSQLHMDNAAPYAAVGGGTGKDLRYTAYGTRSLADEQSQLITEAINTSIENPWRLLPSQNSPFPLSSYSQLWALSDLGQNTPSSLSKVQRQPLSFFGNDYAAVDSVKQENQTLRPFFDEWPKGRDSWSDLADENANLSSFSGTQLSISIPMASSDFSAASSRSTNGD
As to the kind of experiment: binding assay. The following applies: ChIP-seq, most abundant enriched motif; protein in cells; protein details: Flag, p35S::flag-OsGRF4ngr2 transgenic rice.

Construct, isoform or probe ends are uncertain for at least one entry. Results from cells or extracts need not show a direct contact. Protein sequences can lack the tags named with them.

As to “GGCGGCGGCGGC (double strand) [ChIP-seq enriched motif]”, the binding result was “binds”.
